Measured values published in the supplement of paper PMC10849652.
Some of the results follow.

The chains behind the UniProt entries cited, without tags or fusion partners. Where a name states a change or a piece, a line headed by the entry shows the natural chain unless it says otherwise.
UniProt Q8NFI3: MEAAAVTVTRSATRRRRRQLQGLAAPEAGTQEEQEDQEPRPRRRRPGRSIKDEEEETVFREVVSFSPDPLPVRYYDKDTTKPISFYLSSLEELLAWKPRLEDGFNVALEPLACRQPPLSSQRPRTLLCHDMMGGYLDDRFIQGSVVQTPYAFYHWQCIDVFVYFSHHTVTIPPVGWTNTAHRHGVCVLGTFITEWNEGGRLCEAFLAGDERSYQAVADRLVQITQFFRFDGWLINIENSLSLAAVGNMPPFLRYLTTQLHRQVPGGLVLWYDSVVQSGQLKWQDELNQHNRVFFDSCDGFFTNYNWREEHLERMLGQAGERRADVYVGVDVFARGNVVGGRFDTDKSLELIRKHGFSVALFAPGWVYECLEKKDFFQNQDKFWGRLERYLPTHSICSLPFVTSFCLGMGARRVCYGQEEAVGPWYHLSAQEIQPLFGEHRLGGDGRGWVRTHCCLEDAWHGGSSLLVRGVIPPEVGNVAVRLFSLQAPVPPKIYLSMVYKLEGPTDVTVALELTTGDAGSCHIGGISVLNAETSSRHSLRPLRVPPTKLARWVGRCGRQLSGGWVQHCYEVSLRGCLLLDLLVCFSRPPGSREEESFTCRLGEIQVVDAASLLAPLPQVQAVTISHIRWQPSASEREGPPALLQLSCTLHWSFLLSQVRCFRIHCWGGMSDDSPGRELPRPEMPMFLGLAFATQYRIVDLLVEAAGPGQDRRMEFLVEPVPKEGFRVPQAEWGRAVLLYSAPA
UniProt P19525: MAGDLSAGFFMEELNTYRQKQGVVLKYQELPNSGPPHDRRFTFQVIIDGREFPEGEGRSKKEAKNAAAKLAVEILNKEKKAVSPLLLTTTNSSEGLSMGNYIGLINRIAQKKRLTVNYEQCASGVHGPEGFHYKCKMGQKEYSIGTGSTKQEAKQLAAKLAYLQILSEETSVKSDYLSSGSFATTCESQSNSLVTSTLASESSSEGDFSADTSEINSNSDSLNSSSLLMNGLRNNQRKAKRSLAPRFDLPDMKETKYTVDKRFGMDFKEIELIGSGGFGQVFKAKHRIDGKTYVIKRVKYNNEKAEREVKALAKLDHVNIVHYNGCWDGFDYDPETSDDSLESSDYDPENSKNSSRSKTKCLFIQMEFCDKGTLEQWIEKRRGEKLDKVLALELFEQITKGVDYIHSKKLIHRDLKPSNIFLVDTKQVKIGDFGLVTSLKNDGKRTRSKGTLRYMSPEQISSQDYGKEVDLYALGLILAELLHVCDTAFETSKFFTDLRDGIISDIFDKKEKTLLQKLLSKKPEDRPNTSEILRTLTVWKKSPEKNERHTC
UniProt Q05639, whole entry, looked up: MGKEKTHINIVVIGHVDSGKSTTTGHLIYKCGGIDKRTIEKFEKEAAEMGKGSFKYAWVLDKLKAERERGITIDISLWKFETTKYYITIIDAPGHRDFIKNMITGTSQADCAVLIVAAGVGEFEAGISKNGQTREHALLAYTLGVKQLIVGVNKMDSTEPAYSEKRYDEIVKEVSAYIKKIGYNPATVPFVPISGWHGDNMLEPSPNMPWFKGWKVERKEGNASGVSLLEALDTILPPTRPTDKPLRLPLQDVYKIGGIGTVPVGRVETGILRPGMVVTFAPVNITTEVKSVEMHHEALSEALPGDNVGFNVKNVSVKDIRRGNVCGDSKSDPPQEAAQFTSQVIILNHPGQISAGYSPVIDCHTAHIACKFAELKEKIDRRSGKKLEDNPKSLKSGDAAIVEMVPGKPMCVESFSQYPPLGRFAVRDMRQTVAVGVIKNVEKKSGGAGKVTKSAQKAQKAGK
UniProt Q14232, whole entry, looked up: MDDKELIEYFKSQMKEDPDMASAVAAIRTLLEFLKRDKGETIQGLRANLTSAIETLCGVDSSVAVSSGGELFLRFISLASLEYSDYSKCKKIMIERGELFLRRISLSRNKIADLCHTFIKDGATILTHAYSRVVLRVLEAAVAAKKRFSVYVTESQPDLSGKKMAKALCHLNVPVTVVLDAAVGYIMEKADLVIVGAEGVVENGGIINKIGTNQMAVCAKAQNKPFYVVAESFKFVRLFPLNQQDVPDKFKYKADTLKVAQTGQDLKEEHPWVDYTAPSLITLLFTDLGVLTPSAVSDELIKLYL
UniProt P41567, whole entry, looked up: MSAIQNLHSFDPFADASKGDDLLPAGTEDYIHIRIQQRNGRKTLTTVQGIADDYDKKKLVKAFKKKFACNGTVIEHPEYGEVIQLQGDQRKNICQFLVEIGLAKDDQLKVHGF
UniProt P49770: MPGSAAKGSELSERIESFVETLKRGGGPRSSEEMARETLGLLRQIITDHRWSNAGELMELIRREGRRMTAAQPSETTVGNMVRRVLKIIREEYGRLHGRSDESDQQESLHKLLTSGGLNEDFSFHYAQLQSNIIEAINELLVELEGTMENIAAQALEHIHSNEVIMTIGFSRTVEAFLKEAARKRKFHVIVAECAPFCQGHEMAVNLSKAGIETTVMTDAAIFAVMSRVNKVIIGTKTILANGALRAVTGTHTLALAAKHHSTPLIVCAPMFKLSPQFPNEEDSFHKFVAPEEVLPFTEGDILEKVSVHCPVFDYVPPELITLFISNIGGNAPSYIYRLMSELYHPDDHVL
UniProt P55010, whole entry, looked up: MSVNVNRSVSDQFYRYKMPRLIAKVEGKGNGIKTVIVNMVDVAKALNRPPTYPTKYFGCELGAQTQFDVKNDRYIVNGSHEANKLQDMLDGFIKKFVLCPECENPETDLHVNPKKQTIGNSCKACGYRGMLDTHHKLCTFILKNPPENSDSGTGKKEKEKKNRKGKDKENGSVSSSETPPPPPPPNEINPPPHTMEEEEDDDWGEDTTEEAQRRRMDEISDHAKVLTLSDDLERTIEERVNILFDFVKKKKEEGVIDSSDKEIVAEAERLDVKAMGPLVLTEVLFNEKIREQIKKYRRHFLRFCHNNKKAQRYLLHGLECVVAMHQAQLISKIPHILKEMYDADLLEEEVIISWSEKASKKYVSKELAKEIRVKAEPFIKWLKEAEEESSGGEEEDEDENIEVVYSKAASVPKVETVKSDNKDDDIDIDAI
UniProt O43324: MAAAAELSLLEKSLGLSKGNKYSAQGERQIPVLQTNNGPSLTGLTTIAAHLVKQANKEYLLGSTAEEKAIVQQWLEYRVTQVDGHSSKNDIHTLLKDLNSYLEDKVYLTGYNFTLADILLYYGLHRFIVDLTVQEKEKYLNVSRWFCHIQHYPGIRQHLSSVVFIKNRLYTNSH
UniProt O43768: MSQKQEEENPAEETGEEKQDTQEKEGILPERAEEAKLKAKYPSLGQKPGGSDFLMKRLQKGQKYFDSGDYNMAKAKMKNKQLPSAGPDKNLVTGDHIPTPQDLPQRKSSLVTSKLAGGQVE
UniProt Q9P0I2: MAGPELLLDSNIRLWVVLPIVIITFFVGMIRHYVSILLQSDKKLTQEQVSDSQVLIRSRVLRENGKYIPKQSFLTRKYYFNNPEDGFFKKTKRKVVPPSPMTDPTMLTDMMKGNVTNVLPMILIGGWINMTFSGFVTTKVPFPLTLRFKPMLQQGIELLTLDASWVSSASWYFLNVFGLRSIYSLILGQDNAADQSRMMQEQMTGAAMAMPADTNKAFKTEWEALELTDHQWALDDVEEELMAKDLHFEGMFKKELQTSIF
UniProt Q9BY44: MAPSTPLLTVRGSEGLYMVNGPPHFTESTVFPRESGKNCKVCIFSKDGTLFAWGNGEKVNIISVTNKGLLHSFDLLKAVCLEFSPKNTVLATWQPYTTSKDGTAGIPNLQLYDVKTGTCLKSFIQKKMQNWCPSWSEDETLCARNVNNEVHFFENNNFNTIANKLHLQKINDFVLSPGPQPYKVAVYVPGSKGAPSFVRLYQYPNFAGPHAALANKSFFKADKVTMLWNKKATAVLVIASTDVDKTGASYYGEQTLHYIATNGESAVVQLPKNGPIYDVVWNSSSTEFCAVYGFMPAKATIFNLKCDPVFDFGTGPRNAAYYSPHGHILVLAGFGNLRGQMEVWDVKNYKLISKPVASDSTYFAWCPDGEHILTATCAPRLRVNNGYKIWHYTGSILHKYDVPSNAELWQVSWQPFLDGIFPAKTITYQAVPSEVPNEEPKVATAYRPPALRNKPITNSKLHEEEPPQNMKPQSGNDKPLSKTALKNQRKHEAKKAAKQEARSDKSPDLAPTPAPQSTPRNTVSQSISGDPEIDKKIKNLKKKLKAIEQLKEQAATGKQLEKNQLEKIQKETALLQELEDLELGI
UniProt Q9Y227: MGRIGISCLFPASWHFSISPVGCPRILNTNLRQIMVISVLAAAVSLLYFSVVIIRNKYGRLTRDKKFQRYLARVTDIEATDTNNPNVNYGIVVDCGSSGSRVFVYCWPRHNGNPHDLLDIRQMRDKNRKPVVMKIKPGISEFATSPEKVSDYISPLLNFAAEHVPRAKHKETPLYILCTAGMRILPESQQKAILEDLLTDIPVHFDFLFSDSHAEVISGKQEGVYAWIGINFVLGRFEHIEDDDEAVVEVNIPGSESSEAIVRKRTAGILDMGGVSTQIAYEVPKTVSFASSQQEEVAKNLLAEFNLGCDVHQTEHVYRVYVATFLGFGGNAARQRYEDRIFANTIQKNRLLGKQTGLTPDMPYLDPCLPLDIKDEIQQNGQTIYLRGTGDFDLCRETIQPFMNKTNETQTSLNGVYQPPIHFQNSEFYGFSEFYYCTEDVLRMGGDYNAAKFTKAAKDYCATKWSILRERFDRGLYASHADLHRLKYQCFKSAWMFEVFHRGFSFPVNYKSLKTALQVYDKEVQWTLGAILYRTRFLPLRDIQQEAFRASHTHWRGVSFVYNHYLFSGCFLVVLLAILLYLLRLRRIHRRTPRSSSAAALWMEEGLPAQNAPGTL
UniProt O60841: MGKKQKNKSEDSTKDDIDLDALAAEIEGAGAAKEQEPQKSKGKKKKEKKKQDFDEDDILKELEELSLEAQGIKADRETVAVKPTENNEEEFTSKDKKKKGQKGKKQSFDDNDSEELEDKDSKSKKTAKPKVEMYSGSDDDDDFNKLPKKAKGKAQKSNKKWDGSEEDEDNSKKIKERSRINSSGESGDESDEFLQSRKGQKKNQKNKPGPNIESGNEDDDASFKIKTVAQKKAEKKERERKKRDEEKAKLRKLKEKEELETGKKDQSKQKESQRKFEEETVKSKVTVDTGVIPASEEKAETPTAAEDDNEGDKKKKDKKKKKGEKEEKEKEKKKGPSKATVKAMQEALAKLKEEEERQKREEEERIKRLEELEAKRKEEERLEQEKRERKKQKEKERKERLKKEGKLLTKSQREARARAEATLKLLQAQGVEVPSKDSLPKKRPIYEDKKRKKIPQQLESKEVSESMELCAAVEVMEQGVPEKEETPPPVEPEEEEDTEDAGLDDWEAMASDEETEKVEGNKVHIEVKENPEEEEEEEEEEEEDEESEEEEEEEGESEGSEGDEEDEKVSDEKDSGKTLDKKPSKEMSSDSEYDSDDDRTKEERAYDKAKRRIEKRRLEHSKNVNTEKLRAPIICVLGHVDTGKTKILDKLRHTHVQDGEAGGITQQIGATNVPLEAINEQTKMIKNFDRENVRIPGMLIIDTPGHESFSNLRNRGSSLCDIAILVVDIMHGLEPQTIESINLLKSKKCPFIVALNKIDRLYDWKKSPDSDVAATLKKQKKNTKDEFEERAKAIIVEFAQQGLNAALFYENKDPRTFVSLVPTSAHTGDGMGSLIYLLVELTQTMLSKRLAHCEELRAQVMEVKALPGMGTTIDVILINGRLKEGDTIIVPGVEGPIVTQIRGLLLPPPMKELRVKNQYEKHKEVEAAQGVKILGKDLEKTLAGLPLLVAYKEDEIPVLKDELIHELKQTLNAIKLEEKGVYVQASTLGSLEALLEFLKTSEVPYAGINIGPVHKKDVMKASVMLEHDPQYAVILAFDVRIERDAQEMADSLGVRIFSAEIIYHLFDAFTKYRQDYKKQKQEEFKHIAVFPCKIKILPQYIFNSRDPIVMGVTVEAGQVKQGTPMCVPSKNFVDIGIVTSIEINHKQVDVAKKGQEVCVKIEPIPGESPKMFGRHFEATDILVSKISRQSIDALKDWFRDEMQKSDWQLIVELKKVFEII

compound: c1cn2cc(-c3ccc4cn[nH]c4c3)nc(Nc3ccc(N4CCOCC4)cc3)c2n1 [entospletinib]; experiment: log2 fold change, soluble protein after heating vs DMSO (PISA); higher = thermal stabilisation; K562 cells, 10 uM, 30 min; active = over 0.2 and 3.5 SD of the protein, either way, in both replicates (recomputed)
Procedure, shortened: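 Thermal stability values are relative to control samples and come from duplicates. They are expressed as log2 fold changes. For measurement, K562 cells (2×10^6 cells/mL) received 10 μM compound for 30 min, and aliquots were heated for 3 min over 48°C-58°C, pooled, and extracted at 4°C in PBS with 0.5% NP-40. Soluble protein, the supernatant after 21,000xg for 90 min, was quantified by TMTpro 16plex LC-MS/MS with equalised channel sums.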

log2 fold change, inactive:
ENGASE (UniProt Q8NFI3) 0.004
EIF2AK2 (UniProt P19525) 0.136
EEF1A2 (UniProt Q05639) -0.025
EIF2B1 (UniProt Q14232) -0.003
EIF1 (UniProt P41567) 0.001
EIF2B2 (UniProt P49770) 0.04
EIF5 (UniProt P55010) 0.007
EEF1E1 (UniProt O43324) 0.05
ENSA isoform 3 (UniProt O43768) 0.03
EMC3 (UniProt Q9P0I2) -0.023
EIF2A (UniProt Q9BY44) 0.02
ENTPD4 (UniProt Q9Y227) -0.244
EIF5B (UniProt O60841) -0.004
